Data published in patent US20060094765A1, “Use of a sri and vitamin b6 for the treatment of neurological and mental disorders” (Pantarhei Bioscience B.V., priority 2002, published 2006).
For at least one compound, name, drawing or mass did not settle the structure.

System: chronically, mildly stressed rats
Experiment: Chronic mild stress (CMS) model of depression, sucrose consumption
Assay type: in vivo, Male Wistar rats
Settings: citalopram 2.5 or 5.0 mg/kg, alone or with pyridoxine 10 mg/kg, i.p. daily, 5 weeks
Excerpt: Chronic mild stress (CMS), a well-validated preclinical model of depression (Willner, 1997, Validity, reliability and utility of the chronic mild stress model of depression: a 10-year review and evaluation. Psychopharmacology, 134, 319-329, […] et al., 2002, Preclinical models: status of basic research in depression, Soc. Biol. Psych., 52, 503-528), was used to study the effects of combined therapy of SRI with pyridoxine on responder rate and the time to achieve a full drug response ('onset of action') as compared to treatment with SRI alone. Citalopram, as an example of a SRI, was combined with either pyridoxine or vehicle and administered to chronically, mildly stressed rats during a 5-week treatment schedule. Consumption of sucrose solution after fasting, which a commonly accepted measure of anhedonia, i.e. inability to experience pleasure, was chosen for readout, since this is a core symptom of human depressive disorders. […] Sucrose intake was measured by weighing pre-weighed bottles containing the sucrose solution, at the end of the test. Subsequently, sucrose consumption was monitored, under similar conditions, at weekly intervals throughout the whole experiment. […] Mean values in sucrose consumption during stress and subsequently the 5 weeks of vehicle and drug treatment in control and stressed animals were calculated. […]

CN(C)CCCC1(c2ccc(F)cc2)OCc2cc(C#N)ccc21 (stereo not shown) [citalopram]
effect on sucrose consumption in stressed animals: increased the sucrose consumption
